This is an account of results in PMC5891081.

Amino acid sequences for entries named in this document (tags omitted).
UniProt Q09472: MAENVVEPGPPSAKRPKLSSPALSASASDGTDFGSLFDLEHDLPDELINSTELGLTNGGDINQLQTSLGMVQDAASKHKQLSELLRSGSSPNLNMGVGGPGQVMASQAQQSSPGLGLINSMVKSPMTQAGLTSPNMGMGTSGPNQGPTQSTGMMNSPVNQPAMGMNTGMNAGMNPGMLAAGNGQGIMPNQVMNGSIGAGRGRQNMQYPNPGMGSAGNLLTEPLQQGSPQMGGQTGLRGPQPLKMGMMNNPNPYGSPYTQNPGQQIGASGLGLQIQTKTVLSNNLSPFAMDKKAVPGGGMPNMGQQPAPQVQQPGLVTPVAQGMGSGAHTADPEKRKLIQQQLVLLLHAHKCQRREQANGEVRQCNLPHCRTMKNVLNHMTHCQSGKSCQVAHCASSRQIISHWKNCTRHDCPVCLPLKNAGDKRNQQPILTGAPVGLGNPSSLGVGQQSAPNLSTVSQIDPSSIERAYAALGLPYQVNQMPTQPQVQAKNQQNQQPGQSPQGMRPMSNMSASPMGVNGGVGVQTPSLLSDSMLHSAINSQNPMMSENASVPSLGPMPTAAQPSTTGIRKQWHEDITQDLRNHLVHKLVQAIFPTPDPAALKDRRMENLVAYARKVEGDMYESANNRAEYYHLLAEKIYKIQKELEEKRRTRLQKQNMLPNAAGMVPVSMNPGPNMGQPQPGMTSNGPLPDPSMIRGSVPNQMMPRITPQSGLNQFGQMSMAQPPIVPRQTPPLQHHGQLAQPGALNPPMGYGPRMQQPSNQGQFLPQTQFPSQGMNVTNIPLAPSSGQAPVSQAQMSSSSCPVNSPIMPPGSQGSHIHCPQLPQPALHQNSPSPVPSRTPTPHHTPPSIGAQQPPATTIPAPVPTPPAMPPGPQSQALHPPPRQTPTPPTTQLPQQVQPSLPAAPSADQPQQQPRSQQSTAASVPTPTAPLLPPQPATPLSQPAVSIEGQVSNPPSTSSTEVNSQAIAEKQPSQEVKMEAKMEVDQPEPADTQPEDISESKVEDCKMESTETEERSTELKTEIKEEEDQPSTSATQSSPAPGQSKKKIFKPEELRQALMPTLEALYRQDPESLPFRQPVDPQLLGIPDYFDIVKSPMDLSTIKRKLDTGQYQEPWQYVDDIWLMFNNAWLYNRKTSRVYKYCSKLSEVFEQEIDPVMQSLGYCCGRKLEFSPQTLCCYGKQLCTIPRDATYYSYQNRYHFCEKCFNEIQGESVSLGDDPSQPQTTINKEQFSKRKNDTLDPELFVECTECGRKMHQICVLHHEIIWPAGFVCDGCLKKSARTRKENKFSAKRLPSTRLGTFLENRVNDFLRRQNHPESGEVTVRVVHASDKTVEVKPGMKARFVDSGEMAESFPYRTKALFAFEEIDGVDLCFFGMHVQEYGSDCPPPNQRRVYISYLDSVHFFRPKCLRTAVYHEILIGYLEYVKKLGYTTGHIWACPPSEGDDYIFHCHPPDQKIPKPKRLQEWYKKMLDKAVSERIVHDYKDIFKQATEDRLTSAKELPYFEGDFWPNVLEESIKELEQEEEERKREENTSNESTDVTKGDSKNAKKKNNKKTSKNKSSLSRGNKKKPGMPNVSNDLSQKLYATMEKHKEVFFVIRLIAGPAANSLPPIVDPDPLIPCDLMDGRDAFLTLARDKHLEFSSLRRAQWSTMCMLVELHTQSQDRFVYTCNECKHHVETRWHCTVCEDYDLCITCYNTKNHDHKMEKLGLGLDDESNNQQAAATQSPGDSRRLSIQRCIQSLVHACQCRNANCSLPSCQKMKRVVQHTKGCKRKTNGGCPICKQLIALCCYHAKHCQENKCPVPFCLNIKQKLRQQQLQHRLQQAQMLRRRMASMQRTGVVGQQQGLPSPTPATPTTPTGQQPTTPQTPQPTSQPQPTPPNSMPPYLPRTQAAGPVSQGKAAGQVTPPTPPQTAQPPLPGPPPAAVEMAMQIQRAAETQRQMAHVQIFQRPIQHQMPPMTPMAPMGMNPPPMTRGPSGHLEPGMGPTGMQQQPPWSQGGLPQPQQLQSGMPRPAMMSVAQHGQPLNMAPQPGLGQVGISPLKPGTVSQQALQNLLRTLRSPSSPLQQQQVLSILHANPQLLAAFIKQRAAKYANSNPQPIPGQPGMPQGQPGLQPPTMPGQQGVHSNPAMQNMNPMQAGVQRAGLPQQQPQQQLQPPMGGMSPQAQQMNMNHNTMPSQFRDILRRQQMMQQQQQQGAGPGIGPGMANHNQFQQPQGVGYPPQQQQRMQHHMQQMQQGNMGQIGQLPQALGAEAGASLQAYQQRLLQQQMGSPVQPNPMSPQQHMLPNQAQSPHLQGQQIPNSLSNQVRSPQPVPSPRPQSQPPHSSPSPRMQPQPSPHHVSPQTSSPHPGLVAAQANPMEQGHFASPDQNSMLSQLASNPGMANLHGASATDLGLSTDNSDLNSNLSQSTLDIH
UniProt Q92793: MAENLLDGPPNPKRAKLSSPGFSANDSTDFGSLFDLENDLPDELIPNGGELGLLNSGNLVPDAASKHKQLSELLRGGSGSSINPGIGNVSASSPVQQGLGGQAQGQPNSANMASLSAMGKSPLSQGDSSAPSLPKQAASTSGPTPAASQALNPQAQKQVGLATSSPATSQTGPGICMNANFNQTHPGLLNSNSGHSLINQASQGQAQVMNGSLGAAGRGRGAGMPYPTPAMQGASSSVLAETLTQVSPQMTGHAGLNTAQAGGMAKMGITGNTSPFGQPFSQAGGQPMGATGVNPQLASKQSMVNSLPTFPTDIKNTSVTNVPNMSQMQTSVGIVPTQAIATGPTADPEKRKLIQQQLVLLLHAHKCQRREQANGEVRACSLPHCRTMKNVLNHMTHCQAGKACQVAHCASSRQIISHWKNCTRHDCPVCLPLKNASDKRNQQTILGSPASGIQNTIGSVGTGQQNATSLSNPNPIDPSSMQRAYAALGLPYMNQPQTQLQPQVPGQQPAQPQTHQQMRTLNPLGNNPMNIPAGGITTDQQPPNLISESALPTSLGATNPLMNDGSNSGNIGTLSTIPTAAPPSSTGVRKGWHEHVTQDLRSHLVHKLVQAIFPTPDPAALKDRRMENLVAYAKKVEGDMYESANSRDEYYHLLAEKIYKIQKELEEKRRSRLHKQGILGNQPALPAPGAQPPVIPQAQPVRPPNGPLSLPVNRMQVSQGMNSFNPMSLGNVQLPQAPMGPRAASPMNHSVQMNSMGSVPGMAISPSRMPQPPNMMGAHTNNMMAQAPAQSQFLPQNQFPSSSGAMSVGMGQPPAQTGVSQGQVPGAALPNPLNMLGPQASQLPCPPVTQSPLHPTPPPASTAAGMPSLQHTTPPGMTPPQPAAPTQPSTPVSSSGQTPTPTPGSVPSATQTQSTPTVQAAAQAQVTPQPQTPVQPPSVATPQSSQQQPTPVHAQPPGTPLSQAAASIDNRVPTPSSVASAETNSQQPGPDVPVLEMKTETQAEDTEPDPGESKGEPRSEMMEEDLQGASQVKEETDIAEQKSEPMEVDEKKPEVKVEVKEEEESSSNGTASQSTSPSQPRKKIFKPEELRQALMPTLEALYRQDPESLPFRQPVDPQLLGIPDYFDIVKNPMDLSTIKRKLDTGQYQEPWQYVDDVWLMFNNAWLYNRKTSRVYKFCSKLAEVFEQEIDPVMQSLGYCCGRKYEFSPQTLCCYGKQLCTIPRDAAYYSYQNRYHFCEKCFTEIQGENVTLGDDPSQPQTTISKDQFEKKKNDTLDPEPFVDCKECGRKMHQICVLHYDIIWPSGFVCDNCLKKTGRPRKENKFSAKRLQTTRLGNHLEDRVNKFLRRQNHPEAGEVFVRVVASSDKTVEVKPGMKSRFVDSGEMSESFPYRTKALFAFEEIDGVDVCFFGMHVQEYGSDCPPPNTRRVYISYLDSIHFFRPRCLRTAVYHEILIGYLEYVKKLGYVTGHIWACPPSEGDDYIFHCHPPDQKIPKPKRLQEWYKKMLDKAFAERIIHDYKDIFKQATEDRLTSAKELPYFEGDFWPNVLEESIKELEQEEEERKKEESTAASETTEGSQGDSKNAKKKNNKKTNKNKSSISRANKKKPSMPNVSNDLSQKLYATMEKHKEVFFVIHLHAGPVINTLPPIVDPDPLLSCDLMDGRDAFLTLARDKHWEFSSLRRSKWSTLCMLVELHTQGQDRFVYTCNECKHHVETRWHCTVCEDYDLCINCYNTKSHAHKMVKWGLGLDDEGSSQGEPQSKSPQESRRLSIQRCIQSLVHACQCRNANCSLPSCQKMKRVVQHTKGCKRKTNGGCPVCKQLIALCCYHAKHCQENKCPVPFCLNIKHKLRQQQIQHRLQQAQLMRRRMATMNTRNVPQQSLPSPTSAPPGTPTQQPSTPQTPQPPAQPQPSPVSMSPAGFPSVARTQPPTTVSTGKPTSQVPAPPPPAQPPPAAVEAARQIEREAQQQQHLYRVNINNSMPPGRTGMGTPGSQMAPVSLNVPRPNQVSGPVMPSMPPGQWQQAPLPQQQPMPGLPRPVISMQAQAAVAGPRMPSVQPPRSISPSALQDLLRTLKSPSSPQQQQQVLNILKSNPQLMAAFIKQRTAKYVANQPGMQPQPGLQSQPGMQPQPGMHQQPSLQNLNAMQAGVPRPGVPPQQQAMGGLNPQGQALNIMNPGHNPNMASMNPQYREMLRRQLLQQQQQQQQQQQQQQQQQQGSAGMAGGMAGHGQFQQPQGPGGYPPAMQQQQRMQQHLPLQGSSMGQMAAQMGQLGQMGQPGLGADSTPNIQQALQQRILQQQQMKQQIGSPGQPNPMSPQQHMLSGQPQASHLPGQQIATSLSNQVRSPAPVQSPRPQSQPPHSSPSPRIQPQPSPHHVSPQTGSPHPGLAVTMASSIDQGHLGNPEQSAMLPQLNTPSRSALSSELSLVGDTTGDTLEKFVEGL

Test [1] has as its target FLAG-p300 (UniProt Q09472). The test is described as follows: pull-down; RAD52 or GST protein incubated with or without CBP-FLAG or FLAG-p300 in buffer P; immunoprecipitated proteins detected by anti-RAD52 + anti-GST and anti-FLAG immunoblot; both purified. Background: In western blotting, separated proteins are transferred to a membrane and probed.
For test [2], the target named is CBP-FLAG (UniProt Q92793). The description is as above.
Test [3] concerns the target p300 (exogenously overexpressed in HEK293 cells) (UniProt Q09472). Nature of the test: cross-linking + co-IP; DSP-mediated in vivo cross-linking in HEK293 cells overexpressing p300 or CBP and expressing RAD52-HA or GST-HA, with or without doxorubicin; immunoprecipitation with anti-p300 or anti-CBP antibodies.

Results are given in words; binding and its absence hold for the method and conditions named. For part of these data: In cells and extracts the contact can be indirect. Some binding calls cover weakened binding; strength is not graded here. For part of these data: Sequences can lack the tags named with a protein.

B1: human RAD52 (recombinant protein) (protein, UniProt P43351 1-418)
chain: MSGTEEAILGGRDSHPAAGGGSVLCFGQCQYTAEEYQAIQKALRQRLGPEYISSRMAGGGQKVCYIEGHRVINLANEMFGYNGWAHSITQQNVDFVDLNNGKFYVGVCAFVRVQLKDGSYHEDVGYGVSEGLKSKALSLEKARKEAVTDGLKRALRSFGNALGNCILDKDYLRSLNKLPRQLPLEVDLTKAKRQDLEPSVEEARYNSCRPNMALGHPQLQQVTSPSRPSHAVIPADQDCSSRSLSSSAVESEATHQRKLRQKQLQQQFRERMEKQQVRVSTPSAEKSEAAPPAPPVTHSTPVTVSEPLLEKDFLAGVTQELIKTLEDNSEKWAVTPDAGDGVVKPSSRADPAQTSDTLALNNQMVTQNRTPHSVCHQKPQAKSGSWDLQTYSADQRTTGNWESHRKSQDMKKRKYDPS
With B1, the binding entry in test [1] and in test [2] was “binds” throughout.

B2: RAD52-HA (protein, UniProt P43351 1-418)
chain: B1 chain
B2: in test [3], the binding entry is given as “binds”.
